Measured values: PMC7002408

Key:
[1] = target: CFP^C-OsTb2 (rice (Oryza sativa)); test: split reporter; YFP^N and CFP^C fusions cotransformed into protoplasts (PEG-mediated), 28 °C in the dark overnight, confocal microscopy; AHL22-mRFP as nuclear marker; GUS fusions as negative controls
[2] = target: GFP-OsTb2 (rice (Oryza sativa)); test: co-IP; protein extracts of rice protoplasts with GFP-OsTb2 and MYC-OsTb1, precipitated with anti-GFP agarose beads overnight, Western blot with anti-GFP and anti-MYC

Binder | binding [1] | binding [2]
YFP^N-OsTb1 (protein, UniProt Q8LN68 1-388) MLPFFDSPSPMDIPLYQQLQLTPPSPKPDHHHHHHSTFFYYHHHPPPSPSFPSFPSPAAATIASPSPAMHPFMDLELEPHGQQLAAAEEDGAGGQGVDAGVPFGVDGAAAAAAARKDRHSKISTAGGMRDRRMRLSLDVARKFFALQDMLGFDKASKTVQWLLNMSKAAIREIMSDDASSVCEEDGSSSLSVDGKQQQHSNPADRGGGAGDHKGAAHGHSDGKKPAKPRRAAANPKPPRRLANAHPVPDKESRAKARERARERTKEKNRMRWVTLASAISVEAATAAAAAGEDKSPTSPSNNLNHSSSTNLVSTELEDGSSSTRHNGVGVSGGRMQEISAASEASDVIMAFANGGAYGDSGSYYLQQQHQQDQWELGGVVYANSRHYC | binds | 
MYC-OsTb1 (protein, UniProt Q8LN68 1-388) MLPFFDSPSPMDIPLYQQLQLTPPSPKPDHHHHHHSTFFYYHHHPPPSPSFPSFPSPAAATIASPSPAMHPFMDLELEPHGQQLAAAEEDGAGGQGVDAGVPFGVDGAAAAAAARKDRHSKISTAGGMRDRRMRLSLDVARKFFALQDMLGFDKASKTVQWLLNMSKAAIREIMSDDASSVCEEDGSSSLSVDGKQQQHSNPADRGGGAGDHKGAAHGHSDGKKPAKPRRAAANPKPPRRLANAHPVPDKESRAKARERARERTKEKNRMRWVTLASAISVEAATAAAAAGEDKSPTSPSNNLNHSSSTNLVSTELEDGSSSTRHNGVGVSGGRMQEISAASEASDVIMAFANGGAYGDSGSYYLQQQHQQDQWELGGVVYANSRHYC |  | binds

Results are given in words; binding and its absence hold for the method and conditions named. In cells and extracts the contact can be indirect. Binding calls can cover weak binding; strength is not graded here. Where a sequence is shown, tags or fusion partners need not be part of it.
